Data reported in ChEMBL document CHEMBL2177029, “Medicinal chemistry of A₃ adenosine receptor modulators: pharmacological activities and therapeutic implications” (J Med Chem, 2012).

Molecular target: Adenosine receptor A2a (Homo sapiens, UniProt P29274)
Experiment: biochemical
Format: cell-based, CHO

CCCCc1nc2ccccc2c2nc(-c3ccc(Br)cc3)nn12
IC50: > 10 µM
